Results are given in words; binding and its absence hold for the method and conditions named. In cells and extracts the contact can be indirect. Some entries that bind do so weakly or less than the wild type. Tags and fused reporters may be left off the sequences shown.
T1: PLSCR1-GFP (WT, mouse PLSCR1 in pEGFP-C2) (mouse) (UniProt Q9JJ00)
T1 sequence: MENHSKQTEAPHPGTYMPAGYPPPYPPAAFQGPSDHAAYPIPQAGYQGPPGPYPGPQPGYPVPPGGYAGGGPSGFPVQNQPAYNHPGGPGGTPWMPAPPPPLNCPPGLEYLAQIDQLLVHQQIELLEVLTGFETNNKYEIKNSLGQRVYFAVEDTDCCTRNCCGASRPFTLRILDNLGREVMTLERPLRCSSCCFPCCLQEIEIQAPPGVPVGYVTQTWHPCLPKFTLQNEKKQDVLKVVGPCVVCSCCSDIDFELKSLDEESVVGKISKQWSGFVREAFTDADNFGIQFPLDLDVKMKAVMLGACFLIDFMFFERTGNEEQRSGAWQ

Sequences of proteins named here, by UniProt entry; tags and fusion partners are left off.
UniProt Q8CFI0: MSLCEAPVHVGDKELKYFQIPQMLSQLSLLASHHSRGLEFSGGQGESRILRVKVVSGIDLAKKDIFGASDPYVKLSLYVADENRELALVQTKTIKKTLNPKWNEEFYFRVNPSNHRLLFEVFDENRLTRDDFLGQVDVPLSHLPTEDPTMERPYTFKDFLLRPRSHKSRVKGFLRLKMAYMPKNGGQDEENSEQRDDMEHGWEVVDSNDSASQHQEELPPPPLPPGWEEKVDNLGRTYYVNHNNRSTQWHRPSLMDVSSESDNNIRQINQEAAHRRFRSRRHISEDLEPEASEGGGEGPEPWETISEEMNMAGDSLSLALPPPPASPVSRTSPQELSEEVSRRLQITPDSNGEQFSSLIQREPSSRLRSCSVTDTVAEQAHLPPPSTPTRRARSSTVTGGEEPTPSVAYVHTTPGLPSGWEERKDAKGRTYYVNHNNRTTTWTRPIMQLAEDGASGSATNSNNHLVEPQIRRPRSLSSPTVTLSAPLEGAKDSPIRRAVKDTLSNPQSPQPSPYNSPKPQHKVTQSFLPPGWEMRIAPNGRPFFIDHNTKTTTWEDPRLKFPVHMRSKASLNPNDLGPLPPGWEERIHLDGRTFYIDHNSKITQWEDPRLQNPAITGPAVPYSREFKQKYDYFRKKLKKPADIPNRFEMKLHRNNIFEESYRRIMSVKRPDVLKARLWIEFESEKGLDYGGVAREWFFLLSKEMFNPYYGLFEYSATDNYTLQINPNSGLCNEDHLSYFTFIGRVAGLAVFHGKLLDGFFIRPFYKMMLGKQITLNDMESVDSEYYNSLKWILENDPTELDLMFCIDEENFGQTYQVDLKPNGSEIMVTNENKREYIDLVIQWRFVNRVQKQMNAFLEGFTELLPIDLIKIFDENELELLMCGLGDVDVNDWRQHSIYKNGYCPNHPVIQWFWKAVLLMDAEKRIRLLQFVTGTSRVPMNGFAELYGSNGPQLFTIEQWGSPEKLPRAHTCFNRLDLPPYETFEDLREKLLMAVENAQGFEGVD


Columns and labels:
[1] = molecular target: T1, PLSCR1-GFP (WT, mouse PLSCR1 in pEGFP-C2) (mouse); test: co-IP; HEK293T co-transfected with NEDD4-2-myc and PLSCR1-GFP (WT or PY mutant); MG132 and CQ for 4 h; immunoprecipitation with anti-GFP, anti-myc or anti-Nedd4-2 on protein G-Sepharose; immunoblot
NEDD4-2-myc (WT) = NEDD4-2-myc (WT) (UniProt Q8CFI0); test: as above

| binding [1] | binding (NEDD4-2-myc (WT)) | Molecule |
| --- | --- | --- |
| binds | – | NEDD4-2-myc (WT) (from UniProt Q8CFI0 1-1004) (enzyme) |
| – | binds | PLSCR1-GFP (WT, mouse PLSCR1 in pEGFP-C2) (protein, UniProt Q9JJ00 1-328) MENHSKQTEAPHPGTYMPAGYPPPYPPAAFQGPSDHAAYPIPQAGYQGPPGPYPGPQPGYPVPPGGYAGGGPSGFPVQNQPAYNHPGGPGGTPWMPAPPPPLNCPPGLEYLAQIDQLLVHQQIELLEVLTGFETNNKYEIKNSLGQRVYFAVEDTDCCTRNCCGASRPFTLRILDNLGREVMTLERPLRCSSCCFPCCLQEIEIQAPPGVPVGYVTQTWHPCLPKFTLQNEKKQDVLKVVGPCVVCSCCSDIDFELKSLDEESVVGKISKQWSGFVREAFTDADNFGIQFPLDLDVKMKAVMLGACFLIDFMFFERTGNEEQRSGAWQ |
